Results on five substances are retold here after article PMC3648552.

Chains of the proteins cited; added tags and fusions are not shown.
UniProt O94763: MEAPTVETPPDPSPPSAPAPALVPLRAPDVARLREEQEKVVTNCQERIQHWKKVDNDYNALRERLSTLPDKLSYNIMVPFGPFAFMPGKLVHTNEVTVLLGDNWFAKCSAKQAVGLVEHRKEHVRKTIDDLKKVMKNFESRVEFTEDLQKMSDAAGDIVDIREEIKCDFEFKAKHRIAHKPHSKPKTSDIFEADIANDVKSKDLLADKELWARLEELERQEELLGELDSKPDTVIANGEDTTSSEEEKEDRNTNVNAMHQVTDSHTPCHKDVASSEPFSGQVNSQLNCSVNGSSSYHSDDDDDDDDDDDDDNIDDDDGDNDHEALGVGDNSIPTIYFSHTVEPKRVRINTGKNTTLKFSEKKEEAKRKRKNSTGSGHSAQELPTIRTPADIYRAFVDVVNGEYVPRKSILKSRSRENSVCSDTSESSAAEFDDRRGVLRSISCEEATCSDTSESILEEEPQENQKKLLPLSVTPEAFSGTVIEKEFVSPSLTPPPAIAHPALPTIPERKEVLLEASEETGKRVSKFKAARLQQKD
UniProt O15212: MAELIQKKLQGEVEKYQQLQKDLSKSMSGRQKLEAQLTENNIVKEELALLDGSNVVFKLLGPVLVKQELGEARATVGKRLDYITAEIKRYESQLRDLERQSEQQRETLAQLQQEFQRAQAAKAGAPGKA
UniProt Q9UHV9: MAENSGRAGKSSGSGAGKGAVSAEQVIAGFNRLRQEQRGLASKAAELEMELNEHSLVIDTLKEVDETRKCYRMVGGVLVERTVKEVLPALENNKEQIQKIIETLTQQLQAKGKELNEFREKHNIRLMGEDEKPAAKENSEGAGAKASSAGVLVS
UniProt Q9Y265: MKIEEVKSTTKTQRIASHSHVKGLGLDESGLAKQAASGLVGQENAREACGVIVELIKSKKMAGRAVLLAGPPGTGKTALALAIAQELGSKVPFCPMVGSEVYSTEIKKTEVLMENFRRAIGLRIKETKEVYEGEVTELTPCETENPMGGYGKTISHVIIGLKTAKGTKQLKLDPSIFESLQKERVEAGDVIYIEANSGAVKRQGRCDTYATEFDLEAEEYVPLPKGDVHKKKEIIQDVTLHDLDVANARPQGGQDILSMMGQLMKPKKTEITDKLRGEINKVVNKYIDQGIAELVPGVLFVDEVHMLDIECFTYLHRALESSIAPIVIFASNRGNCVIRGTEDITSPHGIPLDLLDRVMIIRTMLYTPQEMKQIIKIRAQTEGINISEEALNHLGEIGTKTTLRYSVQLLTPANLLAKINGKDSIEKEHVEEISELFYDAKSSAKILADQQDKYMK
UniProt Q9NUG6: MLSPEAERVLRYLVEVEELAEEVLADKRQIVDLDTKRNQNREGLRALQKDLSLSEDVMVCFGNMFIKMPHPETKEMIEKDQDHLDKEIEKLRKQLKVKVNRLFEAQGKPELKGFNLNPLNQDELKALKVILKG
UniProt Q96MX6: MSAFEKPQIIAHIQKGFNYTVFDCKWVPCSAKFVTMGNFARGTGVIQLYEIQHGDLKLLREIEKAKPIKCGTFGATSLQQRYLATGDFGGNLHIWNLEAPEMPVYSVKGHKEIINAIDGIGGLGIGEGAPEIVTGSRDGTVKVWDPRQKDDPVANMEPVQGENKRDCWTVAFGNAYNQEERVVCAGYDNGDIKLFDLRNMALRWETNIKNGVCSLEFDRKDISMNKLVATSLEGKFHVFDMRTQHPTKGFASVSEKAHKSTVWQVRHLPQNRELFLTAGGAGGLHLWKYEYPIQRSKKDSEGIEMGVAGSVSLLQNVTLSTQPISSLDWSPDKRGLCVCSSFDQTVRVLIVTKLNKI

These are yes or no findings as the source states them, for the method shown. Binding seen in cells or lysates may run through a third protein. Here binding means that the protein was enriched with, or labelled near, the bait; the list need not be complete.

This assay concerns the target FLAG-URI alpha (Unconventional prefoldin RPB5 Interactor), stably overexpressed in LNCaP cells (UniProt O94763). The assay can be described thus: affinity purification with mass spectrometry; FLAG-URI precipitated on FLAG-agarose beads from nuclear extracts of LNCaP-FLAG-URI cells (LNCaP-vector as control), washes with 300 and 150 mM KCl, eluted with 3xFLAG peptide, MudPIT; done twice.
In the case of “PFDN6, endogenous in LNCaP cells (from UniProt O15212 1-129)”, the binding entry was “binds”.
Turning to “PFDN2, endogenous in LNCaP cells (from UniProt Q9UHV9 1-154)”, the binding result is “binds”.
Regarding “RUVBL1, endogenous in LNCaP cells (from UniProt Q9Y265 1-456)”, the binding entry is reported as “binds”.
The result for “P53 and DNA damage-Regulated Gene 1 (PDRG1), endogenous in LNCaP cells (from UniProt Q9NUG6 1-133)” reads “binds”.
For the substance “WDR92, endogenous in LNCaP cells (from UniProt Q96MX6 1-357)”, the binding entry is recorded as “binds”.
